According to patent publication US9512090B2, “Tetrazolinone compound and use thereof” (Sumitomo Chemical Company, Limited, priority 2013, dated 2016):
Some entries share one result that the patent states for a list of compounds. For at least one compound, name, drawing or mass did not settle the structure.

How the values were obtained:
Assay type in all cases: in vivo
[1] = test system: cucumber powdery mildew fungus (Sphaerotheca fuliginea); experiment: Test Example 6 and Comparative Test Example: cucumber powdery mildew control by foliar spray; conditions: 500 ppm spray on cucumber (SAGAMI HANJIRO); 8 days after inoculation
[2] = test system: barley scald fungus (Rhynchosporium secalis); experiment: Test Example 8: barley scald control by foliar spray; conditions: 200 ppm spray on barley (NISHINOHOSHI); inoculated after 2 days; assessed after 3 + 7 days
[3] = test system: cucumber anthracnose fungus (Colletotrichum lagenarium); experiment: Test Example 10: cucumber anthracnose control by foliar spray; conditions: 200 ppm spray on cucumber (SAGAMI HANJIRO); inoculated after one day; assessed after 1 + 6 days
[4] = test system: wheat leaf blotch fungus (Septoria tritici); experiment: Test Example 5: wheat leaf blotch control by foliar spray; conditions: 500 ppm spray on wheat (APOGEE); inoculated after 4 days; assessed after 3 days + 14 to 18 days

Compound | area of lesion spots on the treated plant relative to that on an untreated plant [1] [%] | area of lesion spots on the treated plant relative to that on an untreated plant [2] [%] | area of lesion spots on the treated plant relative to that on an untreated plant [3] [%] | area of lesion spots on the treated plant relative to that on an untreated plant [4] [%]
COc1cccc(-n2nnn(C)c2=O)c1COc1ccc(-c2cccc(S(C)(=O)=O)c2)cc1C [compound 58] | ≤ 30 | ≤ 30 | ≤ 30 | 
COc1cc(F)c(C)cc1-c1cc(C)c(OCc2c(C)cccc2-n2nnn(C)c2=O)cc1C [compound 154] | ≤ 30 |  |  | ≤ 30
Cc1cccc(-n2nnn(C)c2=O)c1COc1c(F)c(F)c(-c2ccccc2)c(F)c1F [compound 147] | ≤ 30 |  |  | 
Cc1ccc(-c2ccc(OCc3c(C)cccc3-n3nnn(C)c3=O)c(C)c2)cc1 [compound 146] | ≤ 30 |  |  | 
Cc1cc(Oc2ccccc2)ccc1OCc1c(Cl)cccc1-n1nnn(C)c1=O [compound 157] | ≤ 30 |  |  | 
COc1cccc(-n2nnn(C)c2=O)c1COc1ccc(-c2cccc(NC(C)=O)c2)cc1C [compound 13] | ≤ 30 | ≤ 30 |  | ≤ 30
Cc1cc(-c2ccc(F)cc2F)c(C)cc1OCc1c(C)cccc1-n1nnn(C)c1=O [compound 151] | ≤ 30 |  |  | ≤ 30
CNN=Cc1ccc(OCc2c(C)cccc2-n2nnn(C)c2=O)c(C)c1 [compound 108] |  | ≤ 30 |  | 
Cc1cc(Oc2cccc(F)c2)ccc1OCc1c(C)cccc1-n1nnn(C)c1=O [compound 71] |  | ≤ 30 |  | 
CCc1cc(OCc2c(C)cccc2-n2nnn(C)c2=O)ccc1-c1ccccc1 [compound 126] |  | ≤ 30 |  | 
CCc1cccc(-n2nnn(C)c2=O)c1COc1ccc(-c2ccccc2)cc1F [compound 52] | ≤ 30 | ≤ 30 |  | 
COc1ccc(-c2ccc(OCc3c(C)cccc3-n3nnn(C)c3=O)cc2C(F)(F)F)cc1 [compound 119] |  | ≤ 30 |  | 
CCc1cccc(-n2nnn(C)c2=O)c1COc1ccc(-c2ccc(C)cc2C)cc1C [compound 50] | ≤ 30 | ≤ 30 |  | 
Cc1cccc(-n2nnn(C)c2=O)c1COc1c(F)cc(-c2ccccc2)cc1F [compound 148] | ≤ 30 |  |  | 
COc1ccc(-c2cc(C)c(OCc3c(C)cccc3-n3nnn(C)c3=O)cc2C)cc1 [compound 121] | ≤ 30 | ≤ 30 |  | ≤ 30
COC(=O)c1ccc(OCc2c(C)cccc2-n2nnn(C)c2=O)c(C)c1 [compound 96] |  | ≤ 30 | ≤ 30 | 
COC(c1ccccc1)c1ccc(OCc2c(C)cccc2-n2nnn(C)c2=O)c(C)c1 (stereo not shown) [compound 81] |  | ≤ 30 | ≤ 30 | 
Cc1cc(-c2ccccc2C#N)ccc1OCc1c(C2CC2)cccc1-n1nnn(C)c1=O [compound 47] | ≤ 30 | ≤ 30 |  | 

Compound | area of lesion spots on the treated plant relative to that on an untreated plant [1] [%] | area of lesion spots on the treated plant relative to that on an untreated plant [2] [%] | area of lesion spots on the treated plant relative to that on an untreated plant [3] [%] | area of lesion spots on the treated plant relative to that on an untreated plant [4] [%]
COc1ccccc1-c1cc(C)c(OCc2c(C)cccc2-n2nnn(C)c2=O)cc1F [compound 153] |  |  |  | ≤ 30
Cc1cc(Oc2ccccc2C#N)c(C)cc1OCc1c(C)cccc1-n1nnn(C)c1=O [compound 160] | ≤ 30 |  |  | 
CCc1cccc(-n2nnn(C)c2=O)c1COc1ccc(-c2ccccc2C#N)cc1C [compound 48] | ≤ 30 |  |  | 
COc1cccc(-n2nnn(C)c2=O)c1COc1ccc(-c2c(F)c(F)cc(F)c2F)cc1C [compound 149] | ≤ 30 |  |  | ≤ 30
CCC(=O)Nc1ccc(OCc2c(C)cccc2-n2nnn(C)c2=O)c(C)c1 [compound 99] |  | ≤ 30 |  | 
Cc1cc(Oc2ccccc2)c(C)cc1OCc1c(C)cccc1-n1nnn(C)c1=O [compound 158] | ≤ 30 |  |  | 
Cc1cccc(-c2cc(C)c(OCc3c(C)cccc3-n3nnn(C)c3=O)cc2C)c1 [compound 156] | ≤ 30 |  |  | 
Cc1cccc(-n2nnn(C)c2=O)c1COc1cc(F)c(-c2ccccc2)c(F)c1 [compound 116] | ≤ 30 | ≤ 30 |  | ≤ 30
Cc1ccc(-c2ccc(OCc3c(C4CC4)cccc3-n3nnn(C)c3=O)c(C)c2)c(C)c1 [compound 54] | ≤ 30 | ≤ 30 |  | ≤ 30
Cc1cc(C=NN(C)C)ccc1OCc1c(C)cccc1-n1nnn(C)c1=O [compound 109] |  | ≤ 30 |  | 
Cc1cc(Oc2ccc(C#N)cc2)ccc1OCc1c(C)cccc1-n1nnn(C)c1=O [compound 72] | ≤ 30 | ≤ 30 |  | ≤ 30
Cc1cc(COc2ccccc2)ccc1OCc1c(C)cccc1-n1nnn(C)c1=O [compound 83] |  | ≤ 30 |  | 
COc1cccc(-n2nnn(C)c2=O)c1COc1ccc(-c2c(F)c(F)c(F)c(F)c2F)cc1C [compound 150] | ≤ 30 |  |  | 
Cc1ccccc1-c1ccc(OCc2c(C)cccc2-n2nnn(C)c2=O)cc1C(F)(F)F [compound 118] | ≤ 30 | ≤ 30 |  | 
Cc1ccccc1-c1c(F)cc(OCc2c(C)cccc2-n2nnn(C)c2=O)cc1F [compound 125] | ≤ 30 |  |  | 
Cc1cc(-c2ccccc2)c(F)cc1OCc1c(C)cccc1-n1nnn(C)c1=O [compound 152] | ≤ 30 |  |  | ≤ 30
COc1cccc(-n2nnn(C)c2=O)c1COc1ccc(-c2cccc(SC)c2)cc1C [compound 49] | ≤ 30 | ≤ 30 |  | 
Cc1cc(-c2ccc(Cl)c(Cl)c2)ccc1OCc1c(C)cccc1-n1nnn(C)c1=O [compound 41] | ≤ 30 | ≤ 30 |  | ≤ 30
